# PubChem BioAssay (Tox21)
# Chains of the proteins cited; added tags and fusions are not shown. Lines headed by an entry give the natural chain unless they say otherwise; changes in a name come on top.
# UniProt P28223, whole entry, looked up: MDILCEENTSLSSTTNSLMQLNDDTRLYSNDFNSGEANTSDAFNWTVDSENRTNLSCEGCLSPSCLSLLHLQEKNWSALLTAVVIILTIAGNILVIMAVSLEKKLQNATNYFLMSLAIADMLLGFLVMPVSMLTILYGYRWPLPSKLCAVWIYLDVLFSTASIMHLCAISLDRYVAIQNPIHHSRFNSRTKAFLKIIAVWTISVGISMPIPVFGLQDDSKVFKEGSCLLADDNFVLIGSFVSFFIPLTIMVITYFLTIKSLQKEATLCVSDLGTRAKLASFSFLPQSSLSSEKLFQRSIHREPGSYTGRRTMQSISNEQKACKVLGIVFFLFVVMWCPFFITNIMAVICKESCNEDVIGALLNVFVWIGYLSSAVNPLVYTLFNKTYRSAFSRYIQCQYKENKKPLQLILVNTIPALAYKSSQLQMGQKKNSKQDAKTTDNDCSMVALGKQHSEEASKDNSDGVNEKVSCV
# UniProt P14416, whole entry, looked up: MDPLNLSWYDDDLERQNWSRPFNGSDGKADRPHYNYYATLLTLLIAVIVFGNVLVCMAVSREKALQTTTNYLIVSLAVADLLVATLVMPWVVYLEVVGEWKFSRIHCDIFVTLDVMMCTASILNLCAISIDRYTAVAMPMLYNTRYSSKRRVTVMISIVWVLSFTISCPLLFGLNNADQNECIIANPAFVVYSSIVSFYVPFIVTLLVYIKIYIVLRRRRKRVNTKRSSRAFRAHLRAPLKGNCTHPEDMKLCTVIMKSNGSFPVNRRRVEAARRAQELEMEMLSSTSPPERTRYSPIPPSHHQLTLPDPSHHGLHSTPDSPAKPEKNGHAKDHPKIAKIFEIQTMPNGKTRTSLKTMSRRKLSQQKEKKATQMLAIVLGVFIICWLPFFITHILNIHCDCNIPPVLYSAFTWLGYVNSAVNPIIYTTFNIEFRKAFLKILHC
# UniProt P11229: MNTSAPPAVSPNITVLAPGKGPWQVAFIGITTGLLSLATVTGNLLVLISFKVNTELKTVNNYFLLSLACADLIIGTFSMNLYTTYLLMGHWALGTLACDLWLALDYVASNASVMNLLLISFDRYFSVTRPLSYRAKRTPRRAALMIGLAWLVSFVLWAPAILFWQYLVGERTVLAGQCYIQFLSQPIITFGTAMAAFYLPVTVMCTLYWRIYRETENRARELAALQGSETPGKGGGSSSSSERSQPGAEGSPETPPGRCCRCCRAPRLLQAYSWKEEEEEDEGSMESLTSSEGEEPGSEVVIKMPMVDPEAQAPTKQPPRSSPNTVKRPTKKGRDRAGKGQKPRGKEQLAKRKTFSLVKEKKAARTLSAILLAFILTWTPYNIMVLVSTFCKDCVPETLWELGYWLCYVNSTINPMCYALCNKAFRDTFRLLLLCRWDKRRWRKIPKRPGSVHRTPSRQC
# The inconclusive results got no clear call from the source; some entries with a clear call stand among them for comparison. For part of these data: Where the call is inconclusive, the potency comes from a doubtful curve fit. Calls of active or inactive are those of the source. Unless noted, calls follow the shape of the full dose curve.
# Legend:
# [1] = p53 small molecule agonists, cell-based qHTS assay: qHTS cell viability counter screen (AID 1963581); also: nearly all actives have a fitted effect of over 45% in size; also: potency is read from the fitted curve at half-maximal effect; as to activity change, negative = cytotoxicity: % is scaled to controls: 0 for no effect and ±100 for the full control effect
# How it was run: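 Cytotoxicity read-out: ATP-based luminescence (CellTiter-Glo, 30 min RT) measured in the same wells as the p53 reporter assay, HCT-116 p53RE-bla cells, 16 h compound exposure at 37 C.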
# [2] = target: 5-hydroxytryptamine receptor 2A (Homo sapiens) (UniProt P28223); assay: 5-hydroxytryptamine receptor 2A (HTR2A) small molecule antagonists, cell-based qHTS assay (AID 1963586); also: nearly all actives have a fitted effect of over 45% in size; also: potency is read from the fitted curve at half-maximal effect
# How it was run: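 CHO cells stably expressing human HTR2A were plated for 18 h at 37 C, then loaded with calcium dye for 1 h. Compounds were preincubated 5 min at room temperature before DOI (4 nM solution) was added. Kinetic fluorescence was read for 3 min.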
# [3] = cAMP Responsive Elements (CRE) small molecule antagonists, cell-based qHTS assay (AID 1963591; active = well fitted inhibition curve with a large enough effect in the signal ratio in the repeat runs, not every such curve was filed as active; inconclusive = weak or mixed curves, or effect the other way; the % refers to the signal ratio; also: % is scaled to controls: 0 for no effect and ±100 for the full control effect); conditions: CRE-bla HEK293T, beta-lactamase FRET ratio; activity change, negative = inhibition: at 92.4 µM (top of the series) unless noted
# How it was run: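 HEK293T CRE-bla; 18 h preincubation; compound pin-transfer; NKH477 0.25 uM final, 3 h, 37 C; LiveBLAzer FRET substrate 2 h RT.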
# [4] = target: Beta-2 adrenergic receptor (Homo sapiens) (UniProt P07550); assay: Adrenergic beta2 receptor (ADRB2) small molecule antagonists, cell-based qHTS assay (AID 1963592); conditions: CHO-ADRB2 cells, isoproterenol-stimulated cAMP HTRF ratio, 0.5 h; activity change, negative = inhibition: at 92.4 µM (top of the series) unless noted; also: % is scaled to controls: 0 for no effect and ±100 for the full control effect; nearly all actives have a fitted effect of over 50% in size
# How it was run: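 Assay format: CHO-ADRB2 cells, 18-20hr seeding at 37C/5% CO2, then compound plus 1nM isoproterenol agonist mix for 0.5hr RT. Homogeneous time-resolved fluorescence cAMP detection after 1hr, expressed as 665/615 nm ratio.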
# [5] = target: Beta-2 adrenergic receptor (Homo sapiens) (UniProt P07550); assay: Adrenergic beta2 receptor (ADRB2) small molecule agonists, cell-based qHTS assay (AID 1963593); conditions: CHO-ADRB2 cells, cAMP HTRF, 30 min; activation: at 92.4 µM (top of the series) unless noted; also: potency is read from the fitted curve at half-maximal effect;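 as to activation: CHO cells stably overexpressing human ADRB2; % is scaled to controls: 0 for no effect and ±100 for the full control effect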
# How it was run: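 CHO cells stably over-expressing ADRB2 were plated overnight at 37C, then dosed with compounds plus a stimulation mix containing 100uM IBMX and 25uM Ro-20-1724 for 0.5hr at room temperature. cAMP was measured by HTRF competition, 1hr.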
# [6] = target: D(2) dopamine receptor (Homo sapiens) (UniProt P14416); assay: Dopamine D2 receptor (DRD2) small molecule antagonists, cell-based qHTS assay (AID 1963595; active = well fitted inhibition curve with a large enough effect in the signal ratio in the repeat runs, with a control signal flat; inconclusive = weak or mixed curves, or effect the other way; the % refers to the signal ratio; also: potency is read from the fitted curve at half-maximal effect); conditions: HEK293-DRD2 cAMP HTRF antagonist mode; activity change, negative = inhibition: at 92.4 µM (top of the series) unless noted
# How it was run: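 HTRF cAMP read-out at 665 and 620 nm emission (340 nm excitation). Antagonist mode: compounds were tested against 12 nM quinpirole in DRD2-HEK293 cells, with 200 nM NKH477 raising cAMP and 0.1 mM Ro20-1724 blocking its breakdown.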
# [7] = target: Muscarinic acetylcholine receptor M1 (Homo sapiens) (UniProt P11229); assay: Cholinergic receptor muscarinic 1 (CHRM1) small molecule antagonists, cell-based qHTS assay (AID 1963588); also: potency is read from the fitted curve at half-maximal effect; nearly all actives have a fitted effect of over 40% in size
# How it was run: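 Compounds were tested at 15 concentrations in three independent runs. Dye-loaded CHRM1-CHO cells were exposed 5 min at room temperature before stimulation by acetylcholine added at 50nM. Intracellular calcium was read kinetically on FDSS for 3 min.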
# [8] = cAMP Responsive Elements (CRE) small molecule agonists, cell-based qHTS assay (AID 1963590); conditions: CRE-bla HEK293T, beta-lactamase FRET ratio, 3 h; activation: at 92.4 µM (top of the series) unless noted; also: potency is read from the fitted curve at half-maximal effect; as to activation: % is scaled to controls: 0 for no effect and ±100 for the full control effect
# How it was run: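 Beta-lactamase reporter readout: LiveBLAzer B/G FRET substrate, 2 h at room temperature, added after 3 h compound treatment of CRE-bla HEK 293T cells at 37 C/5% CO2.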
# [9] = target: 5-hydroxytryptamine receptor 2A (Homo sapiens) (UniProt P28223); assay: 5-hydroxytryptamine receptor 2A (HTR2A) small molecule agonists, cell-based qHTS assay (AID 1963587); also: potency is read from the fitted curve at half-maximal effect; nearly all actives have a fitted effect of over 30% in size
# How it was run: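 HTR2A-CHO cells, plated 18 h at 37 C/5% CO2, dye-loaded 1 h at 37 C; compounds in DMSO added by pin tool (agonist mode). Intracellular calcium flux read as kinetic fluorescence on FDSS over 2 min at 1 s intervals.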
# [10] = target: D(2) dopamine receptor (Homo sapiens) (UniProt P14416); assay: Dopamine D2 receptor (DRD2) small molecule agonists, cell-based qHTS assay (AID 1963594); conditions: HEK293-DRD2 cAMP HTRF, agonist mode, 30 min; activation: at 92.4 µM (top of the series) unless noted; also: % is scaled to controls: 0 for no effect and ±100 for the full control effect; nearly all actives have a fitted effect of over 35% in size
# How it was run: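 HEK293 cells stably expressing DRD2 were cultured 24 h at 37 C, then given Ro20-1724 (0.1 mM final) and compounds for 10 min at room temperature. NKH477 (200nM) was then added for 30 min. cAMP was read by HTRF.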
structure (smiles),measurement,setting,value
CCN(CC)CCSC(=O)C(c1ccccc1)c1ccccc1,Potency,[1],"inconclusive: 12.6 µM [rising, partial curve]"
same,Potency,[2],active: 1.45 µM
same,"activity change, negative = inhibition",[3],inconclusive: 5.31% [at 42.4 µM]
same,Potency,[4],inactive
same,activation,[5],inconclusive: 21.3% [at 42.5 µM]
same,Potency,[6],"inconclusive: 8.41 µM [inhibitor, partial curve, poor fit]"
CN(C)CCN(C)CCO,Potency,[1],inactive
same,Potency,[2],active: 9.4 µM
same,Potency,[3],inactive
CN1CCCCC1CCN1c2ccccc2Sc2ccc(S(C)=O)cc21 (stereo not drawn),Potency,[1],"inconclusive: 17.8 µM [rising, partial curve, poor fit]"
same,Potency,[2],"inconclusive: 0.0818 µM [inhibitor, full curve]"
same,Potency,[6],active: 1.88 µM
O=C(CCN1CCN2CCCC2C1)N1c2ccccc2Sc2ccc(Cl)cc21 (stereo not drawn),"activity change, negative = cytotoxicity",[1],inactive: -8.91% [at 13.5 µM]
same,Potency,[2],active: 8.94 µM
same,Potency,[7],"inconclusive: 1.78 µM [inhibitor, full curve]"
same,activation,[5],inconclusive: -15.5% [at 19 µM]
CCCCNc1ccc(C(=O)OCCOCCOCCOCCOCCOCCOCCOCCOCCOC)cc1,Potency,[1],"inconclusive: 1.99 µM [cytotoxic, full curve, poor fit]"
same,Potency,[2],inactive
same,Potency,[5],inactive
C=CC(C)(C)C,Potency,[1],inactive
same,Potency,[2],"inconclusive: 3.88 µM [inhibitor, single point]"
same,Potency,[8],inactive
same,Potency,[5],inactive
c1ccncc1,Potency,[1],inactive
same,Potency,[2],"inconclusive: 4.32 µM [inhibitor, single point]"
same,Potency,[3],inactive
same,Potency,[5],"inconclusive: 75.7 µM [inhibitor, single point]"
O=C1Cc2ccccc2N1c1c(Cl)cccc1Cl,Potency,[1],"inconclusive: 16.2 µM [rising, partial curve, poor fit]"
same,Potency,[9],"inconclusive: 27.5 µM [activator, partial curve]"
same,Potency,[8],"inconclusive: 61.1 µM [rising, single point]"
same,"activity change, negative = inhibition",[3],inconclusive: 21.1%
same,Potency,[5],inactive
same,Potency,[10],inactive

# For reference, part of the list above.
structure (smiles),measurement,setting,value
CN1CCCCC1CCN1c2ccccc2Sc2ccc(S(C)=O)cc21 (stereo not drawn),Potency,[1],"inconclusive: 17.8 µM [rising, partial curve, poor fit]"
same,Potency,[2],"inconclusive: 0.0818 µM [inhibitor, full curve]"
